Experimental data reported in PubChem BioAssay AID493014 (National Center for Advancing Translational Sciences (NCATS), 2011).
About 170 (0.05%) of roughly 340,000 compounds were called active. The inconclusive results got no clear call from the source; some entries with a clear call stand among them for comparison. Calls come from the whole dose curve; as a rule, active = well fitted inhibition curve with a large enough effect in the signal ratio, with a control signal flat (not every such curve was filed as active); inconclusive = small, poorly fitted or top-dose-only effect, or effect the other way, or a change in a side signal; inactive = flat fitted curve, though single readings scatter; the % refers to the signal ratio. A potency beside an inconclusive call is a rough fit, not a confirmed value.

Experiment: qHTS Assay to Find Inhibitors of Chronic Active B-Cell Receptor Signaling;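 for activity change, negative = inhibition: plate controls were basal doxycycline-induced cells for no effect and cells given 10 µM MG132 for full effect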
Settings: ABC-DLBCL IkBa-CBG/CBR reporter, luminescence ratio (green luciferase fused to IkBa over red control in TMD8 lymphoma cells), 4 h; activity change, negative = inhibition: at 46.1 µM (top of the series)
Outline: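 TMD8 human ABC-DLBCL cells with doxycycline-inducible IκBα–green luciferase fusion and unfused red luciferase, in 0.5% FBS medium; compounds up to 46 uM, 4 h at 37C. Green/red luminescence ratio, filter-overlap corrected, fitted to concentration-response curves.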
Potency is the fitted concentration of half-maximal effect.

SMILES	activity change, negative = inhibition	Potency
S=C(NCCC1=CCCCC1)Nc1ccc(Cl)cc1	inconclusive: 6.54%	
Cc1ccc(NC(=S)NNC(C)(C)C)cc1		inconclusive: 7.08 µM [cytotoxic, partial curve]
CCCC#Cc1ccc2c(c1)COc1c3ccccc3nn1-2	inconclusive: 7.16%	
Cc1c(S(=O)(=O)Nc2cccc(Cl)c2)c(=O)n(C)c(=O)n1C		inconclusive: 6.51 µM [rising, partial curve, poor fit]
CCc1ccc(-c2cc(C)no2)cc1S(=O)(=O)NCc1ccccc1OC	inconclusive: 6.82%	
Cc1ccc(C)c(NC(=S)c2ccccn2)c1		inconclusive: 3.55 µM [falling, single point]
O=[N+]([O-])c1cccnc1S(=O)(=O)c1ccccc1		inconclusive: 3.55 µM [falling, single point]
Cc1nc(NC2=NCN(Cc3ccco3)CN2)nc2ccccc12	inconclusive: -0.646%	
O=C1CN(C(=O)COC(=O)[C@@H]2CCCN2S(=O)(=O)c2ccc(Cl)cc2)c2ccccc2N1	inactive: 0.693%	
Cc1cc(C)nc(SCc2csc(N)n2)n1	inconclusive: -18.1%	
Cc1ccc(CCNC(=O)C2CCC(=O)N2Cc2ccc(F)cc2)cc1 (stereo not drawn)	inconclusive: -1.96%	
CCN(CC)CCN(Cc1cc2cc3c(cc2[nH]c1=O)OCCO3)C(=S)NCCCN(C)C		inconclusive: 15.8 µM [falling, partial curve, poor fit]
Cc1ccc2cc(S(=O)(=O)NCCCN3CCOCC3)ccc2c1	inconclusive: 15.6%	
Cc1cccc2sc(N(CCCN(C)C)C(=O)CN3C(=O)c4ccccc4C3=O)nc12	inconclusive: 1.88%	
CNc1oc(-c2ccc(F)cc2)nc1S(=O)(=O)c1ccccc1	inconclusive: 0.0689%	
Cc1cc(NC(=O)C2CCN(C(=O)c3ccco3)CC2)ccc1Br	inconclusive: -1%	
O=S(=O)(Nc1ncccc1O)c1ccc(Cl)cc1	inconclusive: 1.03%	
COc1ccccc1N=c1oc2c(OC)cccc2cc1C(=O)NCc1ccco1		inconclusive: 8.91 µM [falling, partial curve]
Cc1nn(S(=O)(=O)c2ccccc2)c(C)c1S(=O)(=O)N1CCOCC1	inactive: 5.81%	
Cc1ccc(OCCCCNC(C)c2ccccc2)c(C)c1 (stereo not drawn)	inactive: -0.687%	
CCOc1ccccc1C(=S)NC1CCCCC1	inconclusive: 3.81%	
Cc1cc(CSc2ccccc2)ccc1NC(=O)c1cccc([N+](=O)[O-])c1	inconclusive: -4.71%	
Cc1ccc2c(c1)-c1[nH]c(=S)ncc1CS2	inactive: 1.24%	
O=C(N/N=C/c1sc2ccccc2c1O)c1cccc2ccccc12		inconclusive: 29.1 µM [falling, single point]
COc1ccc(OC)c(C(O)c2coc3ccc(O)c(CN4CCOCC4)c23)c1 (stereo not drawn)	inconclusive: -11.9%	
O=C(O)C/C=C(\NC(=O)OCc1ccccc1)C(=O)OCc1ccccc1	inconclusive: -3.68%	
COc1ccccc1/C=N/NC(=O)c1nnn(-c2nonc2N)c1CSC1=NCCS1		inconclusive: 6.51 µM [falling, full curve]

3 compounds out of the list, ordered by heavy-atom count, largest number first:
SMILES	activity change, negative = inhibition	Potency
O=C(O)C/C=C(\NC(=O)OCc1ccccc1)C(=O)OCc1ccccc1	inconclusive: -3.68%	
Cc1ccc(CCNC(=O)C2CCC(=O)N2Cc2ccc(F)cc2)cc1 (stereo not drawn)	inconclusive: -1.96%	
Cc1ccc(C)c(NC(=S)c2ccccn2)c1		inconclusive: 3.55 µM [falling, single point]

The listing continues:

SMILES	activity change, negative = inhibition	Potency
CCN(CC)CCCNC(=O)CSc1nc(-c2cccs2)cc(C(F)(F)F)n1		inconclusive: 6.31 µM [falling, single point]
CCC1CCc2sc(C(=O)NCC(c3ccc(OC)cc3)N3CCCC3)cc2C1 (stereo not drawn)	inactive: 5.98%	
Cc1nc(C)c(C(=O)O)s1		inconclusive: 35.5 µM [falling, single point]
COc1ccccc1C(=O)COC(=O)COc1ccc(C#N)cc1	inconclusive: 4.94%	
O=C1CN2C(=Nc3ccc(Cl)cc3C2c2ccccc2)CN1 (stereo not drawn)	inconclusive: -0.649%	
Cc1ccc(C)c(NC(=O)C(OC(=O)c2cc[n+]([O-])cc2)c2ccccc2)c1 (stereo not drawn)	inconclusive: -5%	
COC(=O)CSC(=S)N1C(C)CCCC1C (stereo not drawn)	inconclusive: 8.39%	
COc1cc(/C=N/Nc2ccc(Cl)c(C(=O)O)c2)ccc1OC(=O)c1ccccc1F		inconclusive: 11.2 µM [falling, partial curve]
CCOc1ccc(/C=N/NC(=O)c2[nH]ncc2Br)c(O)c1		inconclusive: 31.6 µM [rising, single point]
COc1ccccc1CNc1nc2nc(C)cc(=O)n2[nH]1		inconclusive: 18.4 µM [falling, partial curve]
Cc1ccc(CNC(=O)COc2ccc(S(=O)(=O)NC(C)C)cc2)cc1	inconclusive: 4.8%	
c1ccc(-n2ncc3c(N4CCCCC4)ncnc32)cc1		inconclusive: 35.5 µM [falling, single point]
[O-]c1c[n+](-c2ccc(-[n+]3cc([O-])on3)cc2)no1	inactive: 4.59%	
CCc1ccc2c(COC(=O)c3n[nH]c4ccccc34)cc(=O)oc2c1		inconclusive: 17.8 µM [falling, single point]
CCc1ccc2nc(SCC(=O)Nc3ccccc3N3CCOCC3)c(C#N)cc2c1	inactive: 0.965%	
O=C(Nc1ccc(F)cc1)c1ccccc1S(=O)(=O)c1ccccc1[N+](=O)[O-]	inactive: -0.152%	
COc1cccc(-c2nn(C)c3sc(C(=O)Nc4ccc5c(c4)OCCO5)cc23)c1	inconclusive: 8.69%	
COC(=O)c1cc(NC(=O)Cc2ccc(OC)cc2)cc(C(=O)OC)c1	inconclusive: -11.7%	
O=C1N(c2ccccc2)c2ccccc2C1(Cc1ccncc1)Cc1ccncc1	inconclusive: -1.36%	
COCCn1ccc2c(OCC(=O)Nc3ccccc3F)cccc2c1=O	inconclusive: 310%	
CCOc1ccccc1NC(=O)CCNS(=O)(=O)c1ccc(NC(C)=O)cc1	inconclusive: -2.49%	
COC(=O)C(NC(=O)CNS(=O)(=O)c1ccc(Br)cc1)c1ccccc1 (stereo not drawn)	inconclusive: 3.13%	
O=C(N/C=C/c1ccccc1)c1ccccc1		inconclusive: 23.1 µM [falling, partial curve]
CCCN1CNC(=S)N(c2ccc(C(=O)OCC)cc2)C1	inactive: -16.8%	
CCn1c(=S)[nH]c2sc3c(c2c1=O)CCCC3	inactive: 9.05%	
CCCCn1c2c(c(=O)n(C)c1=O)C(CC(=O)OCC(=O)Nc1cccc(C(F)(F)F)c1)C(=O)N2 (stereo not drawn)	inconclusive: 12.5%	
